Laboratory results from patent US5030647A, “Anti-inflammatory thienylbenzylamine compounds” (Boehringer Ingelheim Pharmaceuticals, Inc., priority 1990, dated 1991).
Where “and” joins values, the source holds several entries; their conditions need not be identical. Equal entries are not always repeated. The name of at least one read-out is uncertain.

Test system: paw swelling
Experiment: Reverse passive Arthus reaction, inhibition of paw swelling after oral dosing
Assay type: in vivo
Settings: rats; for % INHIBITION (of paw swelling) HOUR 2: 2 hours; for % INHIBITION (of paw swelling) HOUR 3: 3 hours; for % INHIBITION (of paw swelling) HOUR 4: 4 hours
Procedure: The reverse passive Arthus reaction is initiated by the interaction of antigen and antibody resulting in the formation of a precipitating immune complex, followed by fixation of complement, accumulation of leukocytes, edema and hemorrhage. The immunopathology of rheumatoid arthritis involves many of the parameters found in this reaction. Test groups (5 rats per group) are dosed orally with compounds one hour prior to the sub-plantar injection into the right hind paw of rabbit anti-ovalbumin antibody (50 μg/0.1 ml). Immediately afterwards, ovalbumin (Sigma, #5503) (5 mg/0.2 ml) is injected i.v. via the tail vein. The right hind paw volume is measured at hourly intervals, from one to four hours after the injection of the immune reactants. The change in paw volume for each animal is calculated by subtracting zero hour paw volume (before injection) from the paw volume at the time of measurement. The mean of these values is calculated for each group. Results are expressed in Table I below as percent inhibition of paw swelling compared to untreated controls.

CN(C)Cc1ccccc1C(O)c1ccc(Cl)s1 (stereo not drawn) [Compound 1, 5-chloro-2-[(2-dimethylaminomethylphenyl)hydroxymethyl]thiophene]
% INHIBITION (of paw swelling) HOUR 2 (30 mg/kg oral): 61.3% and 58.8%
% INHIBITION (of paw swelling) HOUR 3 (30 mg/kg oral): 57.8% and 44.6%
% INHIBITION (of paw swelling) HOUR 4 (30 mg/kg oral): 19.7% and 32.4%
% INHIBITION (of paw swelling) HOUR 2 (100 mg/kg oral): 74.1%
% INHIBITION (of paw swelling) HOUR 3 (100 mg/kg oral): 88.9%
% INHIBITION (of paw swelling) HOUR 4 (100 mg/kg oral): 81.0%
